Data on one molecule can be found in article PMC9574752.

The chains behind the UniProt entries cited, without tags or fusion partners. Where a name states a change or a piece, a line headed by the entry shows the natural chain unless it says otherwise.
UniProt Q8N6M0: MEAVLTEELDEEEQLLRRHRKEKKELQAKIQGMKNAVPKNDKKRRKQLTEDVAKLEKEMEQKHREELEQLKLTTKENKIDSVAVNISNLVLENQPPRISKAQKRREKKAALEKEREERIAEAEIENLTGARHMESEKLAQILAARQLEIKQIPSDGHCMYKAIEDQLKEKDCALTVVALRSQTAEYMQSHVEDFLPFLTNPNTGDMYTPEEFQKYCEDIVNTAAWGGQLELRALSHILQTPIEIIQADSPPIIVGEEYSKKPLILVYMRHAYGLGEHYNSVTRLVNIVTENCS

The target in assay [1] is FLAG-OTUD6B isoform 2 (IF2). In words: co-IP; FLAG-tagged proteins expressed in HEK293T; whole cell extract (150 mM NaCl, 50 mM Tris-HCl pH 7.5, 5 mM MgCl2, 1 mM EDTA, 0.1% NP-40, 5% glycerol) on FLAG-M2 agarose at 4°C for 1.5-2 h; immunoblot. (A western blot detects proteins with antibodies after separation by electrophoresis.)
For assay [2], the target named is GST-OTUD6B (UniProt Q8N6M0). In words: pull-down; bead-bound purified GST-OTUD6B or GST alone incubated with clarified HEK293T lysate for 1 h at 4°C, four washes with lysis buffer; immunoblot; only the target purified.

These are yes or no findings as the source states them, for the method shown. Binding seen in cells or lysates may run through a third protein. For some assays here: Binding calls can cover weak binding; strength is not graded here.

B1: LIN28B, endogenous in HEK293T cells (protein, UniProt Q6ZN17 1-250)
chain: MAEGGASKGGGEEPGKLPEPAEEESQVLRGTGHCKWFNVRMGFGFISMINREGSPLDIPVDVFVHQSKLFMEGFRSLKEGEPVEFTFKKSSKGLESIRVTGPGGSPCLGSERRPKGKTLQKRKPKGDRCYNCGGLDHHAKECSLPPQPKKCHYCQSIMHMVANCPHKNVAQPPASSQGRQEAESQPCTSTLPREVGGGHGCTSPPFPQEARAEISERSGRSPQEASSTKSSIAPEEQSKKGPSVQKRKKT
Consider B1, for which the binding result is listed as “no binding” in assay [1] and “binds” in assay [2].
